No constants are given. Whether binding was seen depends on the method and setting. Binding seen in cells or lysates may run through a third protein. A yes stands for co-enrichment or nearness to the bait. Other partners may have been found.

Amino acid sequences for entries named in this document (tags omitted).
UniProt O15162: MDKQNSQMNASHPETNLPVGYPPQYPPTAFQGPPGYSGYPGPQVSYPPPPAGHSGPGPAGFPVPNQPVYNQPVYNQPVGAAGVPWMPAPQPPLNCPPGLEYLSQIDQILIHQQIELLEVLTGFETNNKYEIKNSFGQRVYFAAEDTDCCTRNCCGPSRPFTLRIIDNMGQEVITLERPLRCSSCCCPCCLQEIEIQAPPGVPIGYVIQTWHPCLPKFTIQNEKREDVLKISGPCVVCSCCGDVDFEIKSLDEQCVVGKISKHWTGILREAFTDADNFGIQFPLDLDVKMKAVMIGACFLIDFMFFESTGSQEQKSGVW
UniProt P40763: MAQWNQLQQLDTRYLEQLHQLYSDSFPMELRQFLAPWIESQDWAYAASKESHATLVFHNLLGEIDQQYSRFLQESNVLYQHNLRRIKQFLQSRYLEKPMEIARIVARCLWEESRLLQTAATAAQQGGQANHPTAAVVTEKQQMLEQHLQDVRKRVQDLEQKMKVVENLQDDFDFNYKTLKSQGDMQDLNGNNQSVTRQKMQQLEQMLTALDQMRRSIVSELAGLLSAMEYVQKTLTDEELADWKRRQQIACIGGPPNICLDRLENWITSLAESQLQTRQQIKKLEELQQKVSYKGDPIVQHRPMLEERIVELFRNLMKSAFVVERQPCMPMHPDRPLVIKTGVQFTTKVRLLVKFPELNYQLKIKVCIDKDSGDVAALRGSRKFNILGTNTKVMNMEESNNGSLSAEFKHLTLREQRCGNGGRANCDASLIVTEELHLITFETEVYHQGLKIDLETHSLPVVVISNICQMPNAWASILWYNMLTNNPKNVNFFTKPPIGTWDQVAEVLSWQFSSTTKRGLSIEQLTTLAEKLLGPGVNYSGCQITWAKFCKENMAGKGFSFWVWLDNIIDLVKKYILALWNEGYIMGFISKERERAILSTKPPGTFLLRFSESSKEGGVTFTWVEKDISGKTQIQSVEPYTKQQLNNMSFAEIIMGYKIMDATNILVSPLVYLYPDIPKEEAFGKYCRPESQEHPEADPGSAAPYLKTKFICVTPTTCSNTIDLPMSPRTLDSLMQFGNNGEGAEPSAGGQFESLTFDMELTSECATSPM
UniProt P06241: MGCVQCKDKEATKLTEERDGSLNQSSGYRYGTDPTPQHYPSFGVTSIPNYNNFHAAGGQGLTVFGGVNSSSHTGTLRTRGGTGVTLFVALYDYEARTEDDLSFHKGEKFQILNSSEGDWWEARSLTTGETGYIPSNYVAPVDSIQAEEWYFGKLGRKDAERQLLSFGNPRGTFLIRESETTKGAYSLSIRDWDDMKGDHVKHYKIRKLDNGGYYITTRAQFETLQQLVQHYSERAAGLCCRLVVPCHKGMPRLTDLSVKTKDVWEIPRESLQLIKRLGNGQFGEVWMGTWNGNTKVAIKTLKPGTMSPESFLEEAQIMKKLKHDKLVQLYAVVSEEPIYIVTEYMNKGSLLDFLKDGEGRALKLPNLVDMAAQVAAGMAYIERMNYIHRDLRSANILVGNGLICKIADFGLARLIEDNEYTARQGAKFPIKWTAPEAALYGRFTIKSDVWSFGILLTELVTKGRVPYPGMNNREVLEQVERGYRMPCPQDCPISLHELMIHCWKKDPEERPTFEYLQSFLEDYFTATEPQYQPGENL

The test addresses Flag-tagged PLSCR1 (PLSCR1-2Flag), phospholipid scramblase 1 (human) (UniProt O15162). Description: affinity purification with mass spectrometry; PLSCR1-2Flag complex isolated from enriched extracts of stable shPLSCR1-expressing MDA-MB231 cells with Flag affinity columns; bound proteins identified by mass spectrometry.
“STAT3 (signal transducer and activator of transcription 3), endogenous (from UniProt P40763 1-770)”: the binding entry was “binds”.

For “FYN, endogenous (from UniProt P06241 1-537) (enzyme)”, the binding entry is reported as “binds”. As for “EGFR, endogenous (from UniProt P00533 25-1210) (receptor)”, the entry is “binds”.

The values above are taken from article PMC7150476.
